Test system: spleen cells (lymphocytes)
Experiment: cells
Conditions: Mus musculus, Lymphocyte, 48 h, read-out: Inhibition of Concanavalin A Induced Stimulation of Lymphocytes (IC50)

Clc1ccc2c(c1)CCc1cccnc1C2=C1CCNCC1 [DCL, 8-chloro-6,11-dihydro-11-(4-piperidylidene)-5H-benzo[5,6]cyclohepta[1,2-b]pyridine] showed an IC50 of 5.6 µM.

Reference: patent US20020040034A1, “Methods for treating allergic asthma using descarboethoxyloratadine” (priority 1997, published 2002)
